PubChem BioAssay AID720505, Drosophila RNAi Screening Center | 2013

Test: 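Knock-downs that reduce calcium influx once internal stores are emptied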 (primary screen)
Cells: Drosophila S2R+ cells
Reagent: long dsRNA against Drosophila genes
Challenge: thapsigargin (2 µM) in calcium-free buffer to empty internal stores, then 2 mM calcium added back
Measurement: 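Stores emptied by 2 µM thapsigargin without calcium, then 2 mM calcium re-added; fluo-4 fluorescence followed by FLIPR in 384-well plates, per-well averaged endpoint, raw; two screen passes, some wells retested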
Scale: calcium signal: higher = more calcium entry after store depletion
Active means: 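About 1500 genes called as lowering calcium entry, by varying amounts, judged against per-plate control wells with STIM1 as positive and Rho1 as negative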
Meaning of the calls: active = called as lowering calcium entry; inactive = not called
The screen tested about 20,000 reagents; below is an unselected part of those that have a named target and a result. Of all reagents, about 2,100 (10%) were called active. 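Raw plate signals without normalisation; calls rest on control-based scores that were not deposited; replicate 2 separates called from uncalled poorly.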 A plus sign joins genes that one reagent is predicted to hit. The record does not give: the amount of reagent, the time to read-out.

The first 10 records as a preview:
target gene	PubChem SID	calcium signal, replicate 1	calcium signal, replicate 2	activity call
CG12780	SID104185961	132	207	inactive
CG31960	SID104180073	138	88.8	inactive
CG16974	SID104182343	86.9	129	inactive
ATPsynCF6 (ATP synthase, coupling factor 6)	SID104193884	184	126	inactive
aub (aubergine)	SID104183278	77.2	135	inactive
tko (technical knockout)	SID104198636	110	128	inactive
Vmat (Vesicular monoamine transporter)	SID104186753	140	112	inactive
Vmat (Vesicular monoamine transporter)	SID104186754	125	182	inactive
Vmat (Vesicular monoamine transporter)	SID104201754	62.4	254	inactive
CG13605	SID104194400	127	337	inactive

Results, from the start:
target gene	PubChem SID	calcium signal, replicate 1	calcium signal, replicate 2	activity call
CG12780	SID104185961	132	207	inactive
CG31960	SID104180073	138	88.8	inactive
CG16974	SID104182343	86.9	129	inactive
ATPsynCF6 (ATP synthase, coupling factor 6)	SID104193884	184	126	inactive
aub (aubergine)	SID104183278	77.2	135	inactive
tko (technical knockout)	SID104198636	110	128	inactive
Vmat (Vesicular monoamine transporter)	SID104186753	140	112	inactive
Vmat (Vesicular monoamine transporter)	SID104186754	125	182	inactive
Vmat (Vesicular monoamine transporter)	SID104201754	62.4	254	inactive
CG13605	SID104194400	127	337	inactive
Cbs (Cystathionine beta-synthase)	SID104200345	181	86.3	inactive
CG15370	SID104197834	76.3	79.3	inactive
CG15370	SID104202634	110	121	inactive
Mst84Dd (Male-specific RNA 84Dd)	SID104192392	152	144	inactive
CG4691	SID104181742	121	96.9	inactive
CG15236	SID104184762	84.9	85.6	inactive
CG15236	SID104201159	218	103	inactive
CG15236	SID104202382	111	136	inactive
PolA1 (DNA polymerase alpha subunit 1)	SID104196432	96.1	126	inactive
nerfin-1 (nervous fingers 1)	SID104188521	83.8	97.4	inactive
GstD4 (Glutathione S transferase D4)	SID104196477	107	105	inactive
Glut1 (Glucose transporter 1)	SID104188170	105	71.2	inactive
Glut1 (Glucose transporter 1)	SID104188454	99.6	122	inactive
nito (spenito)	SID104185735	163	107	inactive
Met (Methoprene-tolerant)	SID104200076	83.8	106	inactive
CG5746	SID104195660	194	227	inactive
p115	SID104198605	140	129	inactive
CG6276	SID104195799	95.9	144	inactive
Smg5 (Smg5 nonsense mediated mRNA decay factor)	SID104182916	104	119	inactive
CG15617	SID104186362	168	132	inactive
CG13506	SID104183942	104	127	inactive
Zip48C (Zinc/iron regulated transporter-related protein 48C)	SID104186106	192	138	inactive
CG42521	SID104189946	104	80.4	inactive
sm (smooth)	SID104185587	59.4	135	active
sm (smooth)	SID104187478	136	136	inactive
Jon99Ci (Jonah 99Ci)	SID104196652	187	163	inactive
Rassf (Ras association family member)	SID104195404	188	285	inactive
CG17027	SID104190030	104	110	inactive
CG6688	SID104195886	285	240	inactive
Cpr64Ab (Cuticular protein 64Ab)	SID104188253	106	94.3	inactive
CG5382	SID104195578	148	269	inactive
Or88a (Odorant receptor 88a)	SID104196562	113	169	inactive
Ipo9 (Importin 9)	SID104196605	100	112	inactive
CG18748	SID104195177	151	124	inactive
CG3592	SID104198107	139	206	inactive
CG11298	SID104183892	89.1	128	inactive
CG6295	SID104195804	212	138	inactive
CG6652	SID104190478	93.5	102	inactive
CG9003	SID104187109	114	150	inactive
Syn2 (Syntrophin-like 2)	SID104186694	181	176	inactive
CG17994	SID104184669	147	164	inactive
vsg (visgun)	SID104190011	105	107	inactive
mRpL46 (mitochondrial ribosomal protein L46)	SID104188183	78.8	101	inactive
Reg-5 (Rhythmically expressed gene 5)	SID104184439	171	85.7	inactive
CG43428	SID104185997	106	191	inactive
Rs1	SID104185737	147	105	inactive
Krn (Keren)	SID104190994	76.6	164	inactive
Cpr11B (Cuticular protein 11B)	SID104199651	132	120	inactive
Ctu1 (Cytosolic thiouridylase subunit 1)	SID104186861	147	110	inactive
CG31050	SID104193675			active
CG12716	SID104199285	105	99.2	inactive
Ance-2	SID104182331	63.3	112	active
PIG-H (Phosphatidylinositol glycan anchor biosynthesis class H)	SID104194648	93.9	173	inactive
DNAlig4 (DNA ligase 4)	SID104199228	56.1	117	active
Cyp309a1 (Cytochrome P450 309a1)	SID104180539	201	166	inactive
Zip71B (Zinc/iron regulated transporter-related protein 71B)	SID104189478	102	156	inactive
Paris (Parkin Interacting Substrate)	SID104180243	102	168	inactive
CNMaR (CNMamide Receptor)	SID104190016	74.6	105	inactive
Cpr76Ba (Cuticular protein 76Ba)	SID104190852	90.7	170	inactive
CG12679	SID104200285	86.1	124	inactive
CG6106	SID104199763	110	115	inactive
CG32369	SID104189834	97.9	69.3	inactive
CG32369	SID104190626	67.9	123	active
e(y)2b (enhancer of yellow 2b)	SID104192348	107	178	inactive
Elal (Elastin-like)	SID104196454	198	291	inactive
Fa2h (Fatty acid 2-hydroxylase)	SID104186400	149	172	inactive
Fa2h (Fatty acid 2-hydroxylase)	SID104186401	124	186	inactive
Ask1 (Apoptotic signal-regulating kinase 1)	SID104196581	137	134	inactive
Ask1 (Apoptotic signal-regulating kinase 1)	SID104201376	41.6	135	active
CG13613	SID104194408	225	162	inactive
Fer2 (48 related 2)	SID104195717	101	212	inactive
Cap-G (Chromosome associated protein G)	SID104186444	86.3	146	inactive
Cap-G (Chromosome associated protein G)	SID104186445	103	118	inactive
Cap-G (Chromosome associated protein G)	SID104201461	109	72.9	inactive
Cpr47Ee (Cuticular protein 47Ee)	SID104186135	54.8	153	active
Cpr47Ee (Cuticular protein 47Ee)	SID104202521	101	101	inactive
CG2493	SID104182499	110	125	inactive
Mkp3 (Mitogen-activated protein kinase phosphatase 3)	SID104189876	84.1	70.9	inactive
Mkp3 (Mitogen-activated protein kinase phosphatase 3)	SID104189877	72.6	140	inactive
CG17122	SID104190037	93.8	162	inactive
CG42306 + Gint3	SID104186726	73	105	active
ATP6 (retired record)	SID104201070	64.7	171	active
CG4271	SID104180441	156	145	inactive
sphe (spheroide)	SID104199995	108	81.7	inactive
Karybeta3 (Karyopherin beta 3)	SID104192147	161	103	inactive
hb (hunchback)	SID104196755	90.1	127	inactive
CG15117	SID104186331	128	123	inactive
Acbp5 (Acyl-CoA binding protein 5)	SID104190340	97.3	87.5	inactive
CG5721	SID104186737	162	113	inactive
CG18507	SID104181126	239	113	inactive
CG18507	SID104181706	81.6	143	inactive
RluA-1 (RluA pseudouridine synthase 1)	SID104182032	211	131	inactive
RluA-1 (RluA pseudouridine synthase 1)	SID104182852	147	120	inactive
beat-VII (beaten path VII)	SID104193572			active
beat-VII (beaten path VII)	SID104194535	104	129	inactive
beat-VII (beaten path VII)	SID104194536	96.9	120	inactive
beat-VII (beaten path VII)	SID104202184	112	81.1	inactive
